# Results published in patent EP0444898A1 (MERCK & CO. INC., priority 1990, dated 1991).
# Assay: general procedure: Boc solid-phase peptide synthesis; chloromethylated resin (Merrifield resin); Boc-L-Pro-O-(PAM)-resin; BOP reagent/DIEA for some couplings; acid chloride coupling
# Conditions: for isolated mass: scale 1 mmole
# [1] = whole synthesis, HPLC (Method G), scale of the general procedure 1 mmole
# [2] = whole synthesis, scale of the general procedure 1 mmole
# [3] = late stage modification step, HPLC (Method G)
# [4] = whole synthesis, 214 nM, scale of the general procedure 1 mmole, head-to-tail ring
# [5] = late stage modification step, HPLC (Method G), head-to-tail ring
# [6] = late stage modification step, 210 nM, head-to-tail ring
# [7] = whole synthesis, HPLC (Method G), scale of the general procedure 1 mmole, head-to-tail ring
# [8] = whole synthesis, 210 nM, scale of the general procedure 1 mmole, head-to-tail ring
substance,measurement,setting,value
cyclo[D-Phe-L-Ile-D-Pip-L-Pip-D-(Cbz)-Orn-L-Pro],final HPLC purity,[1],purity >97%
same,isolated mass,whole synthesis,582 mg
same,isolated yield,[2],70%
cyclo[D-α-Nal-L-Ile-D-Pip-L-Pip-D-His-L-Pro],final HPLC purity,[1],purity 99%
same,isolated mass,whole synthesis,142 mg
same,isolated yield,[2],14%
C-[D-Tyrosyl-L-isoleucyl-D-pipecolyl-L-lysyl-D-(N-methyl)phenylalanyl-L-prolyl],step yield,late stage modification step,61%
same,final HPLC purity,[3],99%
c-[D-Phenylalany-L-isoleucinyl-D-pipecolyl-L-piperazin-2-yl-D-(N^lm-methyl)histidinyl-L-prolyl],final HPLC purity,[3],>97%
c-[D-(O-Methyl)Tyrosyl-L-isoleucyl-D-pipecolyl-L-lysyl-D-(N-methyl)phenylalanyl-L-prolyl],step yield,late stage modification step,50%
same,final HPLC purity,[3],99%
c-[D-Phenylalanyl-L-phenylglycyl-D-prolyl-L-prolyl-D-phenylalanyl-L-prolyl],final HPLC purity,[4],99%
cyclo[D-Phe-L-Ile-D-Pip-L-Pip-D-Trp-L-Pro],final HPLC purity,[1],purity 99%
same,isolated mass,whole synthesis,500 mg
same,isolated yield,[2],65%
cyclo[D-Phe-L-Ile-D-Pip-L-Pip-3-PyrAla-L-Pro] isomer 2,final HPLC purity,[1],purity 96%
same,isolated mass,whole synthesis,40 mg
same,isolated yield,[2],2%
c-[D-Phenylalanyl-L-isoleucyl-D-Δ-piperazyl-L-pipecolyl-N-methyl-D-phenylalanyl-L-prolyl],final HPLC purity,[5],97.4% pure
c-[D-2-Naphthylalanyl-L-isoleucinyl-D-pipecolyl-L-piperazin-2-yl-D-(N^α-methyl)phenylalanyl-L-prolyl],final HPLC purity,[3],>97%
cyclo[D-Phe-L-Ile-D-(NαMe)Ala-L-Pip-D-(NαMe)Phe-L-Pro],final HPLC purity,[1],purity 99%
same,isolated mass,whole synthesis,350 mg
same,isolated yield,[2],48%
cyclo[D-Trp-L-Ile-D-Pip-L-Pip-D-(NαMe)Phe-L-Pro],final HPLC purity,[1],purity 99%
same,isolated mass,whole synthesis,400 mg
same,isolated yield,[2],52%
c-[D-Phenylalanyl-L-isoleucyl-D-Δ-piperazyl-L-Lysyl-N-Me-D-phenylalanyl-L-prolyl],final HPLC purity,[5],>98%
c-[D-Tryptophanyl(t-butylacetyl)-L-isoleucinyl-D-pipecolyl-L-piperazin-2-yl(4-t-butylacetyl)-D-(Na-Me)phenyla lanyl-L-prolyl],final HPLC purity,[6],>98%
c-[D-Phenylalanyl-L-isoleucinyl-D-prolyl-cis-D-hydroxyprolyl-D-phenylalanyl-L-prolyl],final HPLC purity,[4],99%
c-[D-Phenylalanyl-L-isoleucinyl-D-piperazin-2-yl-L-pipecolyl-D-phenyalanyl-L-prolyl],final HPLC purity,"late stage modification step, 214 nM, head-to-tail ring",>97.6%
c-[D-Phenylalanyl-L-isoleucinyl-D-pipecolyl-L-piperazin-2-yl(4-Cbz)-D-phenylalanyl-L-prolyl],final HPLC purity,[4],>96%
c-[D-Phenylalanyl-L-isoleucyl-D-(Ns-Boc)-ornithyl-L-pipecolyl-N-methyl-D-phenylalanyl-L-prolyl],final HPLC purity,[7],97.0% pure
c-[D-Phenylalanyl-L-isoleucyl-D-piperazyl-L-pipecolyl-N-methyl-D-phenylalanyl-L-prolyl],final HPLC purity,[7],97.0% pure
Cyclo(D-Phe-L-Ile-D-Pip-L-Pip-D-Lys-L-Pro],step yield,late stage modification step,67%
same,final HPLC purity,[3],99%
c-[D-Tryptophanyl-L-isoleucinyl-D-Δ-piperazyl-L-pipecolyl-D-histidyl-L-prolyl],final HPLC purity,[8],>97%
c-[D-Phenylalanyl-L-isoleucinyl-D-prolyl-L-piperazin-2-yl(4-Cbz)-D-phenylaianyl-L-prolyl],final HPLC purity,[8],95%
c-[D-Phenylalanyl-L-isoleucyl-L-glutamyl-L-asparagyl-D-phenylalanyl-L-prolyl],final HPLC purity,[7],99.4% pure
C-[D-(O-Benzyl)Tyrosyl-L-isoleucyl-D-pipecolyl-L-lysyl-D-(N-methyl)phenylalanyl-L-prolyl],step yield,late stage modification step,95%
same,crude HPLC purity,[3],99%
Cyclo[D-Trp-L-HomoPhe-D-Pip-L-Pip-D-(NaMe)-Phe-L-Pro],final HPLC purity,[1],99%
same,isolated mass,whole synthesis,520 mg
same,isolated yield,[2],63%
c-[D-Tryptophanyl-L-isoleucyl-D-pipecolyl-(Nδ-Boc)-L-ornithyl-D-histidyl-L-prolyl] acetate salt,final HPLC purity,"whole synthesis, HPLC (Method G), scale of the general procedure 1 mmole, acetate salt",92.2%
cyclo[D-Phe-L-Ile-D-Pip-L-Pip-D-(2-Cl-Cbz)-Lys-L-Pro],isolated mass,whole synthesis,564 mg
same,isolated yield,[2],65%
c-[N-Me-D-Alanyl-L-isoleucyl-D-pipecolyl-L-pipecolyl-N-Me-D-phenylalanyl-L-prolyl],final HPLC purity,[8],>96.5%
c-[D-Tryptophanyl-L-isoleucinyl-D-pipecolyl-L-piperazin-2-yl-D-(Nα-methyl)phenylalanyl-L-prolyl],final HPLC purity,[6],>97%
